According to US20170290821A1 (priority 2014, published 2017):

Columns and labels:
[1] = Cytotoxicity test (Cell Counting Kit-8), HEK293; type: cell-based; settings: human, HEK293 cells, 293 (HEK293) cells, read-out: CC50 (50% cytotoxicity concentration)
Description: (§1) First, as test compound solutions, test compounds were prepared in 1% dimethylsulfoxide-containing MEMs so that a final concentration was 1000, 100, 10, 1, 0.1, 0.01, or 0.001 μM.
(§2) Cell fluids in which MDCK cells, A549 cells, and HEK293 cells were prepared at concentrations of 6.25×10^5 cells/mL, 2.5×10^6 cells/mL, and 1.25×10^5 cells/mL in minimum essential mediums (MEMs) were added to a 96-well plate at 0.1 ml/well and the cells were seeded. The cells in the 96-well plate were cultured in a carbon dioxide incubator at 37° C. and washed with MEM the day after the seeding date. In the washed cells in the 96-well plate, 0.1 mL of each test compound solution was added to three wells for each concentration and the cells in the 96-well plate were then cultured in a carbon dioxide incubator at 37° C. for 48 hours. After the culture, a Cell Counting Kit-8 solution (commercially available from Dojindo Molecular Technologies, Inc.) was added to each well at 10 μL and culture was additionally performed at 37° C. for several hours. After the culture, an absorbance at 450 nm of a solution of each well in the 96-well plate was measured using a microplate reader. An absorbance value when a solvent (1% dimethylsulfoxide-containing MEM) was added in place of the test compound was set to 100% at which the whole cells survived. […]

[2] = Cytotoxicity test (Cell Counting Kit-8), A549; type: cell-based; settings: human, A549 cells, read-out: CC50 (50% cytotoxicity concentration)
Description: as §1, §2

Question: Which CC50 at 48 h [1] does the source give for `CCS(=O)(=O)N1CC(CC#N)(n2cc(-c3ncnc4[nH]ccc34)cn2)C1` [Compound J6, 2-[1-ethylsulfonyl-3-[4-(7H-pyrrolo[2,3-d]pyrimidin-4-yl)-pyrazol-1-yl]azetidin-3-yl]acetonitrile] here?
Answer: > 316 µM

Question: And the CC50 at 48 h [2]?
Answer: > 316 µM
